Data as given in PubChem BioAssay AID1508597 (Cure First, 2020).
This is a random part of the about 2,100 reagents, under one of the conditions tested. 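Calls flag viability under 80% in either arm, not effects specific to rucaparib; the reference for percent is not stated.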 Unmarked entries are inactive. Some reagents were tested in more than one well and are listed for each. No sequences are given here. Not given: the 100% reference.

- Aim: 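Knock-downs altering ovarian cancer cell survival with or without PARP inhibitor rucaparib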 (primary screen)
- Cell system: human ovarian carcinoma lines grown from tumours: OCI-P5x (papillary serous) and OCI-C5x (clear cell)
- Knock-down reagent: siRNA pool against human genes, 1.25 pmol siRNA per well
- Duration: 72 h or 96 h, depending on the cell culture
- Challenge: rucaparib 20 µM (about IC30) or vehicle, present until read-out
- Rucaparib or vehicle: Rucaparib
- Cell line: OCI-P5x (serous)
- Read-out: 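Luminescent ATP-based viability assay read 72 or 96 h after transfection, depending on culture, given as normalised percent viability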
- Reading the numbers: viability, normalised: higher = more viable cells remaining
- Hit rule: 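a well counts as a hit if its normalised viability is under 80 percent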
- Calls: active = viability under 80%; inactive = viability 80% or more

target | technical replicate | viability, normalised (%)
CCT2 | 1 | 60.7 (active)
CCT2 | 2 | 69.1 (active)
CCT2 | 3 | 63.7 (active)
DDX54 | 1 | 61.3 (active)
DDX54 | 2 | 64.3 (active)
DDX54 | 3 | 73.5 (active)
FGF19 | 1 | 47 (active)
FGF19 | 2 | 59.6 (active)
FGF19 | 3 | 61.5 (active)
MATK | 1 | 110
MATK | 1 | 111
MATK | 2 | 44.2 (active)
MATK | 2 | 82
MATK | 3 | 105
MATK | 3 | 96.7
SCML2 | 1 | 58.6 (active)
SCML2 | 2 | 48 (active)
SCML2 | 3 | 56.8 (active)
COQ8A | 1 | 119
COQ8A | 2 | 89.8
COQ8A | 3 | 126
MAP3K13 | 1 | 67 (active)
MAP3K13 | 1 | 91.1
MAP3K13 | 2 | 87.6
MAP3K13 | 2 | 73.4 (active)
MAP3K13 | 3 | 57.2 (active)
MAP3K13 | 3 | 95.7
ERBB3 | 1 | 69.4 (active)
ERBB3 | 2 | 76.3 (active)
ERBB3 | 3 | 65.7 (active)
RPS6KB1 | 1 | 80
RPS6KB1 | 1 | 54.2 (active)
RPS6KB1 | 2 | 78.5 (active)
RPS6KB1 | 2 | 50.2 (active)
RPS6KB1 | 3 | 69.7 (active)
RPS6KB1 | 3 | 47.6 (active)
MPP1 | 1 | 99.9
MPP1 | 2 | 104
MPP1 | 3 | 88

Sorted by “viability, normalised (%)” (lowest first): some entries from above
target | technical replicate | viability, normalised (%)
FGF19 | 1 | 47 (active)
FGF19 | 2 | 59.6 (active)
FGF19 | 3 | 61.5 (active)
DDX54 | 3 | 73.5 (active)
MATK | 1 | 110
